# Test results as given in paper doi:10.1101/2020.09.21.306522.
# Amino acid sequences for entries named in this document (tags omitted). A change or cut given only in a name is not applied to a line headed by its entry.
# UniProt O94851: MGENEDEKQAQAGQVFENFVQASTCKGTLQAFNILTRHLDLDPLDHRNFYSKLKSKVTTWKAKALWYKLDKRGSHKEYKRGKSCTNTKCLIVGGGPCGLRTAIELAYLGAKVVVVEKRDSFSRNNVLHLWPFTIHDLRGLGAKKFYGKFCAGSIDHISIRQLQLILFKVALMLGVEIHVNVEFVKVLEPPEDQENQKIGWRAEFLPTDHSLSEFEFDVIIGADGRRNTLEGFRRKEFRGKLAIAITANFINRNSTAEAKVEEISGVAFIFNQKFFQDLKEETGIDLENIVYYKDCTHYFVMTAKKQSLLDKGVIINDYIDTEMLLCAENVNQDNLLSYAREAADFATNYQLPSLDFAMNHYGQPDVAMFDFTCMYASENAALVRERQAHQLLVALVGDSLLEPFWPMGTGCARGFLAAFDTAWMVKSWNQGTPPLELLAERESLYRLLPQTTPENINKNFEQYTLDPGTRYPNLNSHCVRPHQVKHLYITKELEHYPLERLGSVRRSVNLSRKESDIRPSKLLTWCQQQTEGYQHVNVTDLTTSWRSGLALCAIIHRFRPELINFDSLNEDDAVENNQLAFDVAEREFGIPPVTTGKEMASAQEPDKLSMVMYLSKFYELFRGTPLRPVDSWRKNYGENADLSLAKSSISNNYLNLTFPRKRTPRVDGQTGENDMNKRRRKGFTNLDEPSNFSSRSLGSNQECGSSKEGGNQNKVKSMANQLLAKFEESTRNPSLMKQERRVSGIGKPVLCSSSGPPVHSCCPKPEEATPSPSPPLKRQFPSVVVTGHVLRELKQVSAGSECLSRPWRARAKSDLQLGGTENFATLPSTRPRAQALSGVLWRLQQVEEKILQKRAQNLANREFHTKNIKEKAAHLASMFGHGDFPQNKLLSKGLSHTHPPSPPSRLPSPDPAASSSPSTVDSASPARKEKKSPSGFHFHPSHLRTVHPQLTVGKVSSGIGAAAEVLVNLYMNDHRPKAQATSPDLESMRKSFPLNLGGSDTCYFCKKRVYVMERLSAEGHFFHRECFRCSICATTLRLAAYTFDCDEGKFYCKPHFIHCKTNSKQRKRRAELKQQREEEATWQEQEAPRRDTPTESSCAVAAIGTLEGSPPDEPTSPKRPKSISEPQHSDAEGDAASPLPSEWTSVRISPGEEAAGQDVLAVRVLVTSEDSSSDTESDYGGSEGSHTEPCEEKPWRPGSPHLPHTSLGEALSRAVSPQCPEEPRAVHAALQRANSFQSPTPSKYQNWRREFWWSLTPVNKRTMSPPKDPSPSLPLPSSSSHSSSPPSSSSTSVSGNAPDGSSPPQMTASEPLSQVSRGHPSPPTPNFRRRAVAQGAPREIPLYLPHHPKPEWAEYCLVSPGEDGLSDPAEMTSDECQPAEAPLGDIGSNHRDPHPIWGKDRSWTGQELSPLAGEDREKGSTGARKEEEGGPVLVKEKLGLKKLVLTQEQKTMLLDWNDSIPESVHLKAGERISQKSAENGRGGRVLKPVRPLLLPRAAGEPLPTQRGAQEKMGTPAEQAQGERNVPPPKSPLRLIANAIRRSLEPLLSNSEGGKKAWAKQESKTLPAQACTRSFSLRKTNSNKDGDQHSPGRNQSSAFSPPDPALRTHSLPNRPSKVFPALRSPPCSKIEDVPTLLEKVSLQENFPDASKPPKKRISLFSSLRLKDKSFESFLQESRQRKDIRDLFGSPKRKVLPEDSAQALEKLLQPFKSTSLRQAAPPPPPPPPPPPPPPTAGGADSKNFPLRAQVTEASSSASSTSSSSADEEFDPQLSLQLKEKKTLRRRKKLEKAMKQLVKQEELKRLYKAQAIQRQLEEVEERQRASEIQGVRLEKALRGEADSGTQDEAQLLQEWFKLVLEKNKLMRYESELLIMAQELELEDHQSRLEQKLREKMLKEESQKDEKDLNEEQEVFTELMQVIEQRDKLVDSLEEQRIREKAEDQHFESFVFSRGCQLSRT
# UniProt Q9ULV4: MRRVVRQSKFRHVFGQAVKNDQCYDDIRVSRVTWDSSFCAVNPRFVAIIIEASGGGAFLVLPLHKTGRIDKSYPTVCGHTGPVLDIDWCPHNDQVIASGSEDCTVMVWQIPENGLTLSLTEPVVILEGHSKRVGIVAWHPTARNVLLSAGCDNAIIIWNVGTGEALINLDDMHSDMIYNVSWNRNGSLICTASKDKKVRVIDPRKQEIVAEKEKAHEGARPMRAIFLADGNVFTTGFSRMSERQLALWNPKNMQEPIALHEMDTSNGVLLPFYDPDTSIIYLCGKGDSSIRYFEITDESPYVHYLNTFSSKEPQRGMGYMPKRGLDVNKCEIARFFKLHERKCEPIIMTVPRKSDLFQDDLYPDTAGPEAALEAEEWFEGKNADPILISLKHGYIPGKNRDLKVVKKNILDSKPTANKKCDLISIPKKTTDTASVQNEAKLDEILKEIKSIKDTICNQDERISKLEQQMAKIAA
# Target: GFP-tagged MICAL2 (human) (UniProt O94851)
# Test: co-IP
substance,measurement,value
coronin-1C (from UniProt Q9ULV4 1-474),binding,binds

# No constants are given. Whether binding was seen depends on the method and setting. In cells and extracts the contact can be indirect. Binding calls can cover weak binding; strength is not graded here.
